{"sequences": {"note": "By UniProt entry, the sequences of proteins in these tests, tags left out.", "UniProt P25454": "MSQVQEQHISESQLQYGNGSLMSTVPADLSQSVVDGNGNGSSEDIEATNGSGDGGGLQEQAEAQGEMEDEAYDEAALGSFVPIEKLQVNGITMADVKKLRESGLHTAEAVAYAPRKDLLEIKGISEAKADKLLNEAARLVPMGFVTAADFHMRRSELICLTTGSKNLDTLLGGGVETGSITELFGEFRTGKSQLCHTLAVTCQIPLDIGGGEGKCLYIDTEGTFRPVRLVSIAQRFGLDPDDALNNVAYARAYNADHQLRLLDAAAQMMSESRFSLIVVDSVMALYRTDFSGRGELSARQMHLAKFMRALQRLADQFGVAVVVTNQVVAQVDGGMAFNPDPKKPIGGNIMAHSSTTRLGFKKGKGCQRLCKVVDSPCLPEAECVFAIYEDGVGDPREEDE"}, "source": "paper PMC5753853", "assay_in_all_cases": "pull-down; GST-Sgs1 fragments on glutathione magnetic beads; 10 mg benzonase-treated yeast lysate with VSV-tagged Rad51, 120 min at room temperature; Rad51 buffer (50 mM Tris pH 7.5, 0.01% NP-40, 5 mM beta-glycerol phosphate, 2 mM magnesium acetate, 120 mM NaCl); western blot with antibodies against GST and VSV; only the target purified", "key": {"[1]": {"molecular_target": "T1, GST-Sgs1 fragment with 240 C-terminal residues deleted (S. cerevisiae) (UniProt P35187)", "T1 sequence": "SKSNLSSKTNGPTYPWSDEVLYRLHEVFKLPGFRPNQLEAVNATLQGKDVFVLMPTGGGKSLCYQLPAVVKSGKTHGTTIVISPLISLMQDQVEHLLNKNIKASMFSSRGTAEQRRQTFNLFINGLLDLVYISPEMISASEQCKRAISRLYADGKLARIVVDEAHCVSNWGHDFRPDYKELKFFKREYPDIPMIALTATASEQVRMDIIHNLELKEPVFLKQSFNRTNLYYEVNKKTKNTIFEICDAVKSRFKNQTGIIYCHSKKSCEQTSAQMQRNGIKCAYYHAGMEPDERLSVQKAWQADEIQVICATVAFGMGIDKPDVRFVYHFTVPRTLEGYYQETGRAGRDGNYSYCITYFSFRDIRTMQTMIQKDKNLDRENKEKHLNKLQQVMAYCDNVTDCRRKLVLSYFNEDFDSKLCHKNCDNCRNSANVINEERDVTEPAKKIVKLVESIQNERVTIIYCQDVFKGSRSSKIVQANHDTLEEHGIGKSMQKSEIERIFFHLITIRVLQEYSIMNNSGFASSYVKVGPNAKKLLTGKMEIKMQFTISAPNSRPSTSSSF"}, "[2]": {"molecular_target": "T2, GST-Sgs1 fragment with 260 C-terminal residues deleted (S. cerevisiae) (UniProt P35187)", "T2 sequence": "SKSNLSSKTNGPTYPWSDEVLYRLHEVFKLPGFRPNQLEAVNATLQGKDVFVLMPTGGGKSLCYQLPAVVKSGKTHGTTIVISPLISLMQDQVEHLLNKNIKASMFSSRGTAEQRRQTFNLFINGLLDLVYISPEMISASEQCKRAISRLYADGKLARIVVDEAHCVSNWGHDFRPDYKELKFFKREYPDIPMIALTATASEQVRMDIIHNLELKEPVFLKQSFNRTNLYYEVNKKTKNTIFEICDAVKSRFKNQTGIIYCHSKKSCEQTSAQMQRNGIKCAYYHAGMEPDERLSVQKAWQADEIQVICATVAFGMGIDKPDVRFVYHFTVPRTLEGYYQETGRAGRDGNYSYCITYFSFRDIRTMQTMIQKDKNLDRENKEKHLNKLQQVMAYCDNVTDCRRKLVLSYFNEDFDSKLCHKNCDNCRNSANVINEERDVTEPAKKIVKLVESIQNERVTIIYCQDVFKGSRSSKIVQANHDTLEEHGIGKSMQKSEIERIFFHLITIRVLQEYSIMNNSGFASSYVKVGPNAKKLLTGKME"}, "[3]": {"molecular_target": "T3, GST-Sgs1^647–1447 (S. cerevisiae) (UniProt P35187)", "T3 sequence": "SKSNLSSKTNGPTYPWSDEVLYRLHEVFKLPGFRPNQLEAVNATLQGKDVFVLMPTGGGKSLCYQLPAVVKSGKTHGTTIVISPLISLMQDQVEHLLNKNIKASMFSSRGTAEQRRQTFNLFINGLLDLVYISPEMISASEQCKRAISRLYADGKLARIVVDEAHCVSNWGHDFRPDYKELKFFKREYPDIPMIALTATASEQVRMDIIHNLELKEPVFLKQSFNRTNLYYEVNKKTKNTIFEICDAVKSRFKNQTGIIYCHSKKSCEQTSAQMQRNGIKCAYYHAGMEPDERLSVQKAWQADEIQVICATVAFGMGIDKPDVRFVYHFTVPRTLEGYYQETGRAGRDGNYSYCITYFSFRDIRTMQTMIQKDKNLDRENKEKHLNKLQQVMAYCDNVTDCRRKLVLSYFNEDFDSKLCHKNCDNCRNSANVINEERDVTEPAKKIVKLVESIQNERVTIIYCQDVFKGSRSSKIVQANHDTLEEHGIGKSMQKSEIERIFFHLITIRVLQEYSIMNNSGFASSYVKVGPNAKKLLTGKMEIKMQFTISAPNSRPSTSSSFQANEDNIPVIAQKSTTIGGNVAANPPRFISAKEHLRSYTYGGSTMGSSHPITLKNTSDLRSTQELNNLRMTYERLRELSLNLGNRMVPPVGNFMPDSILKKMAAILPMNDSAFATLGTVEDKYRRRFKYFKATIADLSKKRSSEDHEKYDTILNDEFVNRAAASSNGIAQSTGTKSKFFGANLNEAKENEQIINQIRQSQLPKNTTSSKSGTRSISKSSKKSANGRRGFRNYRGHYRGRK"}}, "note": "Results are given in words; binding and its absence hold for the method and conditions named. In cells and extracts the contact can be indirect. Some binding calls cover weakened binding; strength is not graded here. Tags and fused reporters may be left off the sequences shown."}
{"substance": "Rad51-V5-3XVSV (from UniProt P25454 1-400)", "values": [{"measurement": "binding", "setting": "[1]", "value": "binds"}, {"measurement": "binding", "setting": "[2]", "value": "no binding"}, {"measurement": "binding", "setting": "[3]", "value": "binds"}]}
